Results on one substance are retold here after article doi:10.1101/544239.

Amino acid sequences for entries named in this document (tags omitted).
UniProt B5Z6X0: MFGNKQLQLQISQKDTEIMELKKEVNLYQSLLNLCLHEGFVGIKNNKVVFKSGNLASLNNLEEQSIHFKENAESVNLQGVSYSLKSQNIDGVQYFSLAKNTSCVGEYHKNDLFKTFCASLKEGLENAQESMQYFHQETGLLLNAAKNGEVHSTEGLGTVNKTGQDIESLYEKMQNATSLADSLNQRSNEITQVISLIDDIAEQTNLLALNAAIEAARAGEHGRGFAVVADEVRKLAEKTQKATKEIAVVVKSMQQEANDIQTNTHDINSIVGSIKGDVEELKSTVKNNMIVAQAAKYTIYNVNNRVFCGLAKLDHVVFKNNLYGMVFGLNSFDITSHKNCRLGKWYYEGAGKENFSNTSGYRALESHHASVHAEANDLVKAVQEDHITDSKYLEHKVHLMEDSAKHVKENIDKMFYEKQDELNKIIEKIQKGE

Results are given in words; binding and its absence hold for the method and conditions named. Some entries that bind do so weakly or less than the wild type.

The experiment has as its target Helicobacter pylori transducer-like protein D (TlpD), strain SS1 (Helicobacter pylori (SS1 strain)) (UniProt B5Z6X0). Description: fluorescence polarisation. Background: In fluorescence polarisation assays a small probe gives low polarisation when free and higher when bound to something large.

On to “Helicobacter pylori transducer-like protein D (TlpD), strain SS1 (from UniProt B5Z6X0 1-433) (receptor)”, for which the binding entry is reported as “binds”.
